Data published in PubChem BioAssay AID1671190 (National Center for Advancing Translational Sciences (NCATS), 2021).
The campaign covered roughly 580,000 compounds. About 6,100 (1.1%) were called active. Inconclusive results, whose numbers are uncertain, are shown with a selection of clear calls. The call rests on the fitted dose curve; in most records, active means well fitted inhibition curve with a large enough effect; inconclusive means small, poorly fitted or top-dose-only effect, or another doubt; inactive means no such curve, though single readings can be large or run the other way. Potencies of inconclusive entries are doubtful fits and often do not repeat.

Protein sequences, listed by entry. Tags and fused reporters are not part of them. Lines headed by an entry give the natural chain unless they say otherwise; changes in a name come on top.
UniProt P18054: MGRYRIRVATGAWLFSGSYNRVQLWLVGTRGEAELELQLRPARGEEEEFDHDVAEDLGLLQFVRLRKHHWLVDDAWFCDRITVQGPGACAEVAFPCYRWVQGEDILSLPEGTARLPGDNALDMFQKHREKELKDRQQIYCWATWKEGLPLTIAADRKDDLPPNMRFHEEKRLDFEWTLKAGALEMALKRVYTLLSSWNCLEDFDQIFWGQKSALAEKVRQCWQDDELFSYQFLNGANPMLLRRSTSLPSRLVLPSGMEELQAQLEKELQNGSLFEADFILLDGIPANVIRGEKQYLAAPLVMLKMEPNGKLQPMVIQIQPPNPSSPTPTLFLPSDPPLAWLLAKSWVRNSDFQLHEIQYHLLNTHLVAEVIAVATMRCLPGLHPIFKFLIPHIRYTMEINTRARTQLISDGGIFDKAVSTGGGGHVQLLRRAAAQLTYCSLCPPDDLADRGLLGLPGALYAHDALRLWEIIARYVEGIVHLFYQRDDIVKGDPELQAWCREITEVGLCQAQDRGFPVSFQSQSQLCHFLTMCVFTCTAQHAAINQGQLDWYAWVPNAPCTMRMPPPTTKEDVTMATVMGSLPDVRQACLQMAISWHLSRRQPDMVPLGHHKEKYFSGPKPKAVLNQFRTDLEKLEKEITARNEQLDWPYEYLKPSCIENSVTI

The compounds below were run against Polyunsaturated fatty acid lipoxygenase ALOX12 (Homo sapiens) (UniProt P18054) (assay: Primary qHTS assay for inhibitors of human arachidonate 12S-lipoxygenase (ALOX12): Round 2). Conditions: purified 12hLO, xylenol orange hydroperoxide absorbance; activity change, negative = inhibition: at 108 µM (top of the series) unless noted.
How it was run: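 Purified human 12hLO (150 nM final) in 25 mM Hepes, 0.01% Triton X-100, pH 7.0 was preincubated 15 min at room temperature with compound. Then 40 uM arachidonic acid was added, 30 min. Hydroperoxide was read by Fe-XO absorbance ratio 573/405 nm.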
On the % scale 0 is the no-effect control and ±100 the full control effect; potency means the concentration at half of the fitted maximal effect.

Structure (SMILES) | Potency | activity change, negative = inhibition
CN(C)CCCN=c1c2ccccc2n(C)c2[nH]c(=O)n(C)c(=O)c12 | active: 21.7 µM | –
O=c1[nH]c(CN2CCN(CCO)CC2)nc2ccccc12 | inconclusive: 7.94 µM [inhibitor, full curve, poor fit] | –
O=C(Nc1ccncc1)C1CCN(S(=O)(=O)c2cccs2)CC1 | – | inactive: -3.13%
c1cn2c(-c3ccc(N4CCOCC4)cc3)cncc2n1 | inconclusive: 89.1 µM [inhibitor, single point] | –
O=C(N/N=C/c1ccc(F)cc1)c1cc(-c2ccco2)nc2ccccc12 | inconclusive: 2.51 µM [inhibitor, full curve, poor fit] | –
COc1ccc(OC)c(/C=C2/Sc3ccccc3C2=O)c1 | – | inactive: -3.16%
CCCCOc1ccc(Br)cc1CSC(=N)N | inconclusive: 50.1 µM [inhibitor, partial curve, poor fit] | –
O=C(CN1CCCC1c1cccs1)Nc1cc(S(=O)(=O)N2CCCC2)ccc1Cl (configuration not stated) | inconclusive: 50.1 µM [inhibitor, single point] | –
COCCN1C(=O)c2ccccc2N2C(=O)CCC12C(=O)OCc1cc(=O)oc2cc(C)ccc12 (configuration not stated) | inconclusive: 56.2 µM [inhibitor, partial curve, poor fit] | –
Cc1cccc2nc(CSc3ccc(Cl)cc3)cn12 | inconclusive: 89.1 µM [inhibitor, single point] | –
CCc1nc2ncc(C#N)c(N)n2n1 | inconclusive: 35.5 µM [inhibitor, partial curve, poor fit] | –
CCOC(=O)C1CCCN(C(=O)c2cc3c(=O)[nH]c4ccc(C)cc4c3s2)C1 (configuration not stated) | inconclusive: 141 µM [inhibitor, partial curve, poor fit] | –
O=C1CSC(=S)N1N=Cc1c(F)cccc1Cl | inconclusive: 70.8 µM [inhibitor, partial curve, poor fit] | –
N#Cc1c(N2CCOCC2)nsc1-c1ccccc1 | inconclusive: 112 µM [inhibitor, partial curve, poor fit] | –
CCOc1ccc(CCNC(=O)Cc2nn[nH]n2)cc1OCC | inconclusive: 35.5 µM [inhibitor, partial curve, poor fit] | –
CCCC(=O)N1CCN(C2CCN(CCOC)C2=O)CC1 (configuration not stated) | inconclusive: 10 µM [inhibitor, partial curve, poor fit] | –
Cc1cc(=O)oc2ccc(OCC(=O)NCc3ccco3)cc12 | – | inactive: -25.8%
CCCCn1c(=O)[nH]c(=O)c2c1nc(CN1CCN(S(=O)(=O)c3ccc(F)cc3)CC1)n2CC | – | inactive: -21.3%
COc1ccccc1CC(=O)N1CCCc2ncc(C(=O)Nc3cccc(Cl)c3)cc21 | inconclusive: 35.5 µM [inhibitor, single point] | –
COc1cccc(Nc2sc(C(=O)c3ccc(F)cc3)c(N)c2C(=O)NCc2ccc(Cl)cc2)c1 | – | inactive: -21.8%
O=C(Nc1cccc(S(=O)(=O)N2CCOCC2)c1)[C@@H]1CCCN1S(=O)(=O)c1ccc(Cl)cc1 | inconclusive: 50.1 µM [inhibitor, full curve, poor fit] | –

Structure (SMILES) | Potency | activity change, negative = inhibition
Cc1nn(Cc2ccccc2)c(C)c1C(=O)N1CCN(CC(=O)Nc2ccc(F)cc2)CC1 | inconclusive: 89.1 µM [inhibitor, partial curve, poor fit] | –
O=C(C1CC1)N1CCn2c(nnc2[C@@H]2C[C@@H](O)CN2Cc2ccccc2)C1 | inconclusive: 8.91 µM [inhibitor, partial curve] | –
COc1ccc(C)cc1NC(=O)NC(C)c1ccc2c(c1)OCO2 (configuration not stated) | inconclusive: 79.4 µM [inhibitor, single point] | –
Cc1cccc(N2CCN(C(=O)c3cn(CC(C)C)c(=O)c4c3c3ccccc3n4C)CC2)c1C | inconclusive: 25.1 µM [inhibitor, partial curve, poor fit] | –
Cc1ccc(NC(=O)CC(c2cccc(F)c2)n2cccc2)cc1N(C)C (configuration not stated) | inconclusive: 44.7 µM [inhibitor, partial curve, poor fit] | –
CC(C)c1nc2c(c(-c3ccc(Cl)cc3)n1)CCN(Cc1ccc(C(F)(F)F)cc1)CC2 | inconclusive: 12.6 µM [inhibitor, full curve, poor fit] | –
O=C(OCC(=O)N1CCN(c2ccccc2)CC1)c1cnc(Cl)c(Cl)c1 | inconclusive: 39.8 µM [inhibitor, partial curve] | –
COc1ccc(-c2ccc(NS(=O)(=O)c3ccc(C(C)=O)cc3)cc2)nn1 | – | inactive: -22.5%
CCC(=O)N1CCC2(CC1)CN(c1ccccc1)C2=O | – | inactive: 8.28%
CCCCCN(C(=O)CCC(=O)OCC(=O)N(CC)C1CCCCC1)c1c(N)n(CCCC)c(=O)[nH]c1=O | inconclusive: 50.1 µM [inhibitor, single point] | –
Cc1ccc(-c2noc(CNC(=O)c3ccc(Br)o3)n2)cc1 | inconclusive: 112 µM [inhibitor, partial curve, poor fit] | –
CCC(Cc1ccccc1)n1c(=S)[nH]c2ccccc2c1=O (configuration not stated) | inconclusive: 44.7 µM [inhibitor, partial curve, poor fit] | –
CCCCN1C(SCC(=O)OCC)=NS(=O)(=O)c2ccccc21 | – | inactive: -14.4%
CCN(C)Cc1cccc(CNC(=O)c2cc(C)nc3ccccc23)c1 | inconclusive: 50.1 µM [inhibitor, single point] | –
O=S(=O)(NCCCCCNS(=O)(=O)c1ccccc1)c1ccccc1 | – | inactive: -27.7%
Cc1c(CC(=O)N2CCN(c3ccccn3)CC2)c(=O)oc2cc(O)ccc12 | inconclusive: 50.1 µM [inhibitor, partial curve, poor fit] | –
O=C(N1CCOCC1)N1CCC(c2nnc3n2CCNC3)CC1 | inconclusive: 1.78 µM [inhibitor, full curve, poor fit] | –
CC(=O)c1cccc(NC(=O)c2cc(-c3ccc(Cl)s3)nc3ccccc23)c1 | – | inactive: 3.67%
CCNC(=S)NS(=O)(=O)c1ccc(F)cc1 | inconclusive: 11.2 µM [inhibitor, full curve, poor fit] | –
C=CC(C)(CCC=C(C)C)OC(=O)C(C)C (configuration not stated) | – | inactive: 13.5% [at 176 µM]
O=Cc1c[nH]c2cccc(OCc3ccccc3)c12 | – | inactive: -17.6%

Three entries out of the list, ordered by heavy-atom count, ascending:
Structure (SMILES) | Potency | activity change, negative = inhibition
Cc1ccc(-c2noc(CNC(=O)c3ccc(Br)o3)n2)cc1 | inconclusive: 112 µM [inhibitor, partial curve, poor fit] | –
CCCCN1C(SCC(=O)OCC)=NS(=O)(=O)c2ccccc21 | – | inactive: -14.4%
Cc1cccc(N2CCN(C(=O)c3cn(CC(C)C)c(=O)c4c3c3ccccc3n4C)CC2)c1C | inconclusive: 25.1 µM [inhibitor, partial curve, poor fit] | –
